Results are given in words; binding and its absence hold for the method and conditions named.
Columns and labels:
[1] = target: CD40 ECD Mutant 3 (amino acid 21-193, F34A/T35A) with mFc-tag (human); assay: ELISA on recombinant CD40 ECD proteins with mFc tag (Example 16); antibody concentration not given
[2] = target: CD40 ECD Mutant 2 (amino acid 21-193, T32A/E33A) with mFc-tag (human); assay: as above
[3] = target: CD40 ECD Mutant 4 (amino acid 21-193, E35A/T37A) with mFc-tag (human); assay: as above
[4] = target: CD40 ECD Mutant 3 (amino acid 21-193, F34A/T35A) with mFc-tag (human); assay: ELISA, recombinant CD40 ECD-mFc
[5] = target: CD40 ECD Mutant 2 (amino acid 21-193, T32A/E33A) with mFc-tag (human); assay: ELISA, recombinant CD40 ECD-mFc
[6] = target: CD40 ECD Mutant 4 (amino acid 21-193, E35A/T37A) with mFc-tag (human); assay: ELISA, recombinant CD40 ECD-mFc

Measured: binding

B1: 13A2-VH3VL2 (antibody, human IgG2, kappa, V domains shown)
VH: QVQLQESGPGLVKPSDTLSLTCAVSGYSITTNYYWNWIRQPPGNKLEWMGYINYDGSNNYNPSLKNRITISVDTSKNQFSLKLSSVTAVDTAVYYCARLDYWGQGTLVTVSS
VL: DVVLTQSPLSLPVTLGQPASISCRSSQSLENSNGNTFLNWFQQRPGQSPRLLIYKVSNRFSGVPDRFSGSGSGTDFTLKISRVEAEDVGVYYCLQVTHVPFTFGQGTKLEIKR
no binding: [1] | [2] | [3]

B2: 13A2-VH3VL3 (antibody, human IgG2, kappa, V domains shown)
VH: QVQLQESGPGLVKPSDTLSLTCAVSGYSITTNYYWNWIRQPPGNKLEWMGYINYDGSNNYNPSLKNRITISVDTSKNQFSLKLSSVTAVDTAVYYCARLDYWGQGTLVTVSS
VL: DVVLTQSPLSLPVTLGQPASISCRSSQSLENSNGNTFLNWFQQRPGQSPRLLIYKVSNRFSGVPDRFSGSGSGTDFTLKISRVEAEDVGVYFCLQVTHVPFTFGSGTKLEIKR
no binding: [1] | [2] | [3]

B3: chimeric 13A2 antibody (antibody, human IgG2, kappa, V domains shown)
VH: EVKLEQSGPGLVKPSQSLSLTCSVTGYSITTNYYWNWIRQFPGNKLEWMGYINYDGSNNYNPSLKNRISITRDTSKNQFFLKLNSVTTEDTATYYCARLDYWGQGTSVTVSS
VL: DIVMTQSPLSLPVSLGDQASISCRSSQSLENSNGNTFLNWFLQKPGQSPQLLIYKVSNRFSGVLDRFSGTGSGTDFTLTISRVEAEDLGVYFCLQVTHVPFTFGSGTKLEIKR
no binding: all assays above

Reference: US10654939
